The reference is the same well before dosing, and untreated signal decays as well.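 Fibroblast labels name human fibroblasts: mostly primary ones from tissues such as uterus (C12385, HUF), lung (H6013), bone (Hs27A), adrenal (HADF) and skin (WS1), plus mammary HMF and breast cancer-associated Hs343T. The cancer cells are basal-like or mesenchymal-like triple-negative breast cancer lines. The paper calls a changed response a hit when it shifts by more than 3x the replicate standard deviation. The tissue of the other fibroblasts is not given here.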
System: MDAMB231
Test: relative JC-1 red fluorescence (viability) vs pre-drug, coculture with fibroblast (fraction); higher = more viable cancer cells
Experimental: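 JC-1 labelled TNBC cells cocultured 1:1 (1,500 cells each) with CellTrace Violet stained primary or stromal fibroblasts in 384-well plates in FluoroBrite medium, treated with one of 42 anticancer drugs at 0.1, 1, 10 or 100 uM. JC-1 red fluorescence (mitochondrial integrity in cancer cells only) was read by plate reader every 8 h for 72 h. Values are normalised to each well's pre-drug value. The stock of one drug was tenfold lower, so its dose labels may be too high.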

CS(=O)(=O)CCNCc1ccc(-c2ccc3ncnc(Nc4ccc(OCc5cccc(F)c5)c(Cl)c4)c3c2)o1 [Lapatinib]
relative JC-1 red fluorescence
Conditions	8 h	16 h	24 h	32 h	40 h	48 h	56 h	64 h	72 h
0.1 µM, coculture fibroblast: C12385	0.7716	0.7579	0.6606	0.6628	0.612	0.582	0.537	0.528	0.505
0.1 µM, coculture fibroblast: H6013	0.893	0.838	0.7765	0.766	0.7274	0.684	0.673	0.644	0.606
0.1 µM, coculture fibroblast: H6019	0.796	0.743	0.751	0.746	0.719	0.708	0.667	0.67	0.637
0.1 µM, coculture fibroblast: H6076	0.9211	0.826	0.779	0.7604	0.729	0.695	0.667	0.648	0.629
0.1 µM, coculture fibroblast: H6231	0.9722	0.89	0.802	0.734	0.687	0.646	0.603	0.579	0.546
0.1 µM, coculture fibroblast: HADF	0.93	0.924	0.862	0.843	0.802	0.73	0.725	0.708	0.665
0.1 µM, coculture fibroblast: HCFa	0.907	0.847	0.815	0.787	0.754	0.713	0.684	0.668	0.625
0.1 µM, coculture fibroblast: HCPF	0.927	0.831	0.76	0.733	0.672	0.628	0.582	0.548	0.521
0.1 µM, coculture fibroblast: HHSteC	0.92359	0.8955	0.851	0.817	0.76	0.722	0.6767	0.6527	0.615
0.1 µM, coculture fibroblast: HMF	0.895	0.8241	0.771	0.742	0.69	0.665	0.62	0.611	0.59
0.1 µM, coculture fibroblast: HPFa	0.9419	0.905	0.8402	0.7898	0.7664	0.7225	0.6729	0.6431	0.5918
0.1 µM, coculture fibroblast: HUF	0.8389	0.751	0.7523	0.6491	0.597	0.582	0.529	0.516	0.493
0.1 µM, coculture fibroblast: Hs5	0.936	0.87	0.807	0.766	0.714	0.652	0.604	0.568	0.528
0.1 µM, coculture fibroblast: Hs27A	0.8678	0.8206	0.781	0.766	0.719	0.645	0.657	0.632	0.587
0.1 µM, coculture fibroblast: Hs343T	0.884	0.779	0.699	0.665	0.609	0.556	0.503	0.474	0.446
0.1 µM, coculture fibroblast: WS1	0.7558	0.7272	0.632	0.621	0.582	0.5517	0.508	0.499	0.469
1 µM, coculture fibroblast: C12385	0.812	0.7914	0.691	0.728	0.667	0.544	0.515	0.515	0.503
1 µM, coculture fibroblast: H6013	0.92352	0.925	0.901	0.903	0.879	0.851	0.845	0.826	0.787
1 µM, coculture fibroblast: H6019	0.846	0.829	0.8109	0.796	0.7786	0.779	0.764	0.755	0.729
1 µM, coculture fibroblast: H6076	0.9476	0.88	0.847	0.824	0.797	0.758	0.752	0.731	0.71
1 µM, coculture fibroblast: H6231	0.92853	0.8347	0.791	0.759	0.701	0.6712	0.647	0.6247	0.585
1 µM, coculture fibroblast: HADF	0.879	0.8633	0.8339	0.808	0.782	0.755	0.755	0.74	0.705
1 µM, coculture fibroblast: HCFa	0.919	0.8957	0.8763	0.854	0.838	0.8	0.789	0.759	0.719
1 µM, coculture fibroblast: HCPF	0.928	0.8563	0.825	0.81	0.757	0.724	0.702	0.676	0.66
1 µM, coculture fibroblast: HHSteC	0.9313	0.924	0.898	0.864	0.837	0.8	0.762	0.737	0.705
1 µM, coculture fibroblast: HMF	0.954	0.891	0.86	0.832	0.793	0.764	0.745	0.723	0.696
1 µM, coculture fibroblast: HPFa	0.982	0.956	0.916	0.881	0.867	0.832	0.783	0.752	0.709
1 µM, coculture fibroblast: HUF	0.92	0.861	0.858	0.788	0.728	0.717	0.67	0.657	0.633
1 µM, coculture fibroblast: Hs5	0.844	0.907	0.867	0.828	0.781	0.722	0.709	0.668	0.65
1 µM, coculture fibroblast: Hs27A	0.9295	0.923	0.889	0.867	0.827	0.752	0.779	0.755	0.706
1 µM, coculture fibroblast: Hs343T	0.937	0.85	0.8142	0.7799	0.738	0.6986	0.667	0.648	0.626
1 µM, coculture fibroblast: WS1	0.784	0.7843	0.648	0.699	0.66	0.623	0.583	0.564	0.537
10 µM, coculture fibroblast: C12385	0.7693	0.818	0.654	0.859	0.877	0.88	0.869	0.8504	0.8485
10 µM, coculture fibroblast: H6013	0.8479	0.83711	0.833	0.8696	0.868	0.8155	0.862	0.8535	0.843
10 µM, coculture fibroblast: H6019	0.7999	0.815	0.7473	0.87044	0.8554	0.851	0.831	0.805	0.783
10 µM, coculture fibroblast: H6076	0.9746	0.9449	0.9469	0.9924	0.757	0.719	0.86	0.862	0.913
10 µM, coculture fibroblast: H6231	0.97792	0.945	0.916	0.902	0.897	0.883	0.862	0.834	0.819
10 µM, coculture fibroblast: HADF	0.855	0.837	0.831	0.835	0.837	0.753	0.8051	0.8076	0.772
10 µM, coculture fibroblast: HCFa	0.893	0.863	0.8818	0.916	0.939	0.894	0.929	0.781	0.806
10 µM, coculture fibroblast: HCPF	0.78	0.872	0.844	0.83	0.816	0.815	0.932	0.913	0.894
10 µM, coculture fibroblast: HHSteC	0.854	0.848	0.862	0.894	0.901	0.874	0.879	0.896	0.875
10 µM, coculture fibroblast: HMF	0.794	0.839	0.964	0.953	0.952	0.948	0.93	0.905	0.893
10 µM, coculture fibroblast: HPFa	0.908	0.906	0.881	0.899	0.947	0.921	0.931	0.934	0.9141
10 µM, coculture fibroblast: HUF	0.844	0.806	0.805	0.792	0.751	0.756	0.802	0.72	0.803
10 µM, coculture fibroblast: Hs5	0.864	0.822	0.929	0.836	0.874	0.872	0.99641	0.99	0.939
10 µM, coculture fibroblast: Hs27A	0.8714	0.832	0.812	0.813	0.788	0.693	0.765	0.766	0.764
10 µM, coculture fibroblast: Hs343T	0.781	0.73	0.75	0.809	0.862	0.758	0.769	0.96	0.821
10 µM, coculture fibroblast: WS1	0.764	0.795	0.6686	0.852	0.9023	0.9237	0.9287	0.918	0.889
100 µM, coculture fibroblast: C12385	0.778	0.745	0.6986	0.717	0.68	0.666	0.636	0.635	0.615
100 µM, coculture fibroblast: H6013	0.919	0.878	0.845	0.824	0.806	0.789	0.803	0.783	0.742
100 µM, coculture fibroblast: H6019	0.803	0.75	0.718	0.689	0.65523	0.637	0.603	0.5938	0.556
100 µM, coculture fibroblast: H6076	0.913	0.872	0.862	0.837	0.812	0.779	0.755	0.74	0.734
100 µM, coculture fibroblast: H6231	0.954	0.877	0.835	0.785	0.739	0.705	0.66	0.635	0.614
100 µM, coculture fibroblast: HADF	0.892	0.886	0.857	0.829	0.81	0.7514	0.761	0.744	0.7071
100 µM, coculture fibroblast: HCFa	0.929	0.911	0.879	0.872	0.829	0.767	0.761	0.735	0.699
100 µM, coculture fibroblast: HCPF	0.903	0.813	0.762	0.742	0.7	0.6566	0.625	0.596	0.565
100 µM, coculture fibroblast: HHSteC	0.9152	0.8739	0.8338	0.801	0.77	0.732	0.696	0.665	0.63
100 µM, coculture fibroblast: HMF	0.99212	0.937	0.917	0.899	0.88	0.847	0.818	0.805	0.782
100 µM, coculture fibroblast: HPFa	0.9844	0.9509	0.901	0.859	0.837	0.795	0.748	0.723	0.674
100 µM, coculture fibroblast: HUF	0.903	0.829	0.863	0.778	0.715	0.709	0.66	0.647	0.63
100 µM, coculture fibroblast: Hs5	0.931	0.866	0.82	0.77923	0.727	0.673	0.644	0.615	0.591
100 µM, coculture fibroblast: Hs27A	0.928	0.888	0.863	0.853	0.817	0.729	0.769	0.75	0.706
100 µM, coculture fibroblast: Hs343T	0.878	0.942	0.916	0.887	0.844	0.808	0.768	0.753	0.722
100 µM, coculture fibroblast: WS1	0.736	0.726	0.644	0.615	0.576	0.548	0.504	0.495	0.463

— the supplement of paper PMC6078165
